From paper PMC3426532
Results are given in words; binding and its absence hold for the method and conditions named. Binding seen in cells or lysates may run through a third protein. Some binding calls cover weakened binding; strength is not graded here.

Amino acid sequences for entries named in this document (tags omitted). Residues count along the entry.
UniProt Q2M405, residues 118-599: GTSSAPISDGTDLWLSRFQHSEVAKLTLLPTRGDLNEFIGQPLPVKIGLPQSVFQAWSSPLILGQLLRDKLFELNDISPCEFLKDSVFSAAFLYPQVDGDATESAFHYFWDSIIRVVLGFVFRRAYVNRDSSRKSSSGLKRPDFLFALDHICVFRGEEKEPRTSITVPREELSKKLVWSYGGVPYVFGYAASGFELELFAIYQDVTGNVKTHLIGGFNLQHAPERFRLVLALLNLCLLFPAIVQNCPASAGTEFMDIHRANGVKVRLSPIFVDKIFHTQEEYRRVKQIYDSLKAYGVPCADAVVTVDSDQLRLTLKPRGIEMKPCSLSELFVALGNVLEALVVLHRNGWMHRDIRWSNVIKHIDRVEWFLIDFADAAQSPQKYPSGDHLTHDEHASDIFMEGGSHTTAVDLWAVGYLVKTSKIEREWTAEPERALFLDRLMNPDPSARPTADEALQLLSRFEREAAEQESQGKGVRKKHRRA

Target: CRN8 (amino acids 118-599), FLAG- or GFP-tagged fusion protein (Phytophthora infestans) (UniProt Q2M405)
Test: co-IP

“CRN8 (amino acids 118-599), FLAG- or GFP-tagged fusion protein (from UniProt Q2M405 118-599) (domain or fragment)” was tested, and the binding was “binds”.
